Assay results reported in paper PMC9290681 (British Journal of Pharmacology, 2020).

By UniProt entry, the sequences of proteins in these tests, tags left out. Residues count along the entry.
UniProt J9SQF3, 1-1721 isoform J9SQF3-8: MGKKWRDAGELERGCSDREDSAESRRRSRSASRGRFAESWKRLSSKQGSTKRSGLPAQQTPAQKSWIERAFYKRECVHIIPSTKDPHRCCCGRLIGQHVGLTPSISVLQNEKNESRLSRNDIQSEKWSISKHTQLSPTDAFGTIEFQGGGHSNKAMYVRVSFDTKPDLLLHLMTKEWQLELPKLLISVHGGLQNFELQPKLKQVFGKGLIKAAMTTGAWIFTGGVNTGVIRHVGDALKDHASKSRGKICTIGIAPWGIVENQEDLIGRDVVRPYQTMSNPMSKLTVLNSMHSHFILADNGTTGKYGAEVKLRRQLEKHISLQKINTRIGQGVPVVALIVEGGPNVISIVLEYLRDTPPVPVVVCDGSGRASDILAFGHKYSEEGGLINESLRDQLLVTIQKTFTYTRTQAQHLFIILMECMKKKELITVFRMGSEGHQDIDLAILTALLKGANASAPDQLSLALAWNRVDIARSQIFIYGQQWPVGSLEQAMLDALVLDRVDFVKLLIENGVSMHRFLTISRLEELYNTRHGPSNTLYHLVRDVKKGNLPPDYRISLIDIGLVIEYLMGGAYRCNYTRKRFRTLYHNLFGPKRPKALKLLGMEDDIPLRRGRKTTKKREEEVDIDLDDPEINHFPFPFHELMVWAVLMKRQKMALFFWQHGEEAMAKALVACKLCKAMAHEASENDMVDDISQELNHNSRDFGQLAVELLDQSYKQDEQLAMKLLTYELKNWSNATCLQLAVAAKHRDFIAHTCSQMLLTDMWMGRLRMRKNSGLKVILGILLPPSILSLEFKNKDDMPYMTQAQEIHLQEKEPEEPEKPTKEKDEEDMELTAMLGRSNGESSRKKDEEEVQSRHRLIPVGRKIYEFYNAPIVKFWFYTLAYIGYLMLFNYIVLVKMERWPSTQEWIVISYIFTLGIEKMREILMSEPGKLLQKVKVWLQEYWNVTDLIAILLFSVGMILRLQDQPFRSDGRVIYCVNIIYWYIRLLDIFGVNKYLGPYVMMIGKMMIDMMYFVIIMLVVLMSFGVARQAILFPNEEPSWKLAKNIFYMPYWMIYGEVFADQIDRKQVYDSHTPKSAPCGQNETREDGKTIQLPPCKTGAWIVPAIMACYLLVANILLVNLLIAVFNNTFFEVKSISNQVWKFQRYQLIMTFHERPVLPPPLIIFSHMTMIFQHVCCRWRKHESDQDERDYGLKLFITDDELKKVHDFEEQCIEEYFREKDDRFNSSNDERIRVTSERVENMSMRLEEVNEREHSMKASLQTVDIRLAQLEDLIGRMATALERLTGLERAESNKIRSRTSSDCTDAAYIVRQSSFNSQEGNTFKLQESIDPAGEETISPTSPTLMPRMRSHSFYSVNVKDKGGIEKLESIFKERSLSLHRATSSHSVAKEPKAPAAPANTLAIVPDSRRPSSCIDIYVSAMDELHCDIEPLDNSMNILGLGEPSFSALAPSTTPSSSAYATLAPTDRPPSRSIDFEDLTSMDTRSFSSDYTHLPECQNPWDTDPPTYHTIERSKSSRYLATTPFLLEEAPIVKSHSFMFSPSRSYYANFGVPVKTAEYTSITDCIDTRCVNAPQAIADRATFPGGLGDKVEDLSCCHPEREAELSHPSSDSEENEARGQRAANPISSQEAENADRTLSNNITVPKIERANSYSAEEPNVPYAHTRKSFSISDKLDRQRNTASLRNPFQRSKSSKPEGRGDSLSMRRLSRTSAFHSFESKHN

Biological target: TRPM3α1 (Mus musculus, UniProt J9SQF3)
Experiment: Whole-cell patch clamp, HEK293T cells expressing TRPM3α1
Assay type: cell-based

- EC50: 3 µM
SMILES: Clc1ccccc1C(c1ccccc1)(c1ccccc1)n1ccnc1 [clotrimazole, Clotrimazole]
